Measured values as given in ChEMBL document CHEMBL2034922, “Identification, optimisation and in vivo evaluation of oxadiazole DGAT-1 inhibitors for the treatment of obesity and diabetes” (Bioorg Med Chem Lett, 2012).

Experiment: Lipophilicity, log D of the compound
Conditions: octanol/water

| Compound | logD |
| --- | --- |
| O=C(Nc1ccc(N2CCCCC2)cc1)c1nnc(Nc2ccccc2F)o1 | > 4.2 |
| O=C(Nc1ccc(N2CCOCC2)nc1)c1nnc(Nc2cccc(Oc3ccccc3)c2)o1 | > 4.2 |
